Laboratory results as given in the supplement of paper PMC10849652.
Some of the results follow.

By UniProt entry, the sequences of proteins in these tests, tags left out. Where a name states a change or a piece, a line headed by the entry shows the natural chain unless it says otherwise.
UniProt Q9BV94: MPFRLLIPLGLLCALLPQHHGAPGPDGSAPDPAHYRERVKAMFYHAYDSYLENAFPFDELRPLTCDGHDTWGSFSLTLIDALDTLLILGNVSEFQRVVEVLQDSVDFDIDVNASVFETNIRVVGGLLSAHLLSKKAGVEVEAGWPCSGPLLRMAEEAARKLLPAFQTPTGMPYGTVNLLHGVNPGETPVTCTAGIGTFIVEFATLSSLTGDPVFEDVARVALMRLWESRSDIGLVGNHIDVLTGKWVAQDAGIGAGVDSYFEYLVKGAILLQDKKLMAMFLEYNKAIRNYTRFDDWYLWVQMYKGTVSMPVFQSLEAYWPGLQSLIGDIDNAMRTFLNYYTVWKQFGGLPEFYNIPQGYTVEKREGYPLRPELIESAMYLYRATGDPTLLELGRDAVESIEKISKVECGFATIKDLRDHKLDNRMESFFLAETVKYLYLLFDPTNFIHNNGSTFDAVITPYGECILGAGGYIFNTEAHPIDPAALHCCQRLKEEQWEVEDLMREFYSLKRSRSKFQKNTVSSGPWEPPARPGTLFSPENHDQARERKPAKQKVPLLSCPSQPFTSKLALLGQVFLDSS
UniProt P23919: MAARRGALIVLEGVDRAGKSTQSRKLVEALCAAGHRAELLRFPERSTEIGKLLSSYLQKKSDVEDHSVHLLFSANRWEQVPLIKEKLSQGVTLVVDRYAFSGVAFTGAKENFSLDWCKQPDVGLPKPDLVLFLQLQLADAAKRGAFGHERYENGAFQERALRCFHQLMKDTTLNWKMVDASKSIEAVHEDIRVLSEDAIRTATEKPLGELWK
UniProt Q9NRW4: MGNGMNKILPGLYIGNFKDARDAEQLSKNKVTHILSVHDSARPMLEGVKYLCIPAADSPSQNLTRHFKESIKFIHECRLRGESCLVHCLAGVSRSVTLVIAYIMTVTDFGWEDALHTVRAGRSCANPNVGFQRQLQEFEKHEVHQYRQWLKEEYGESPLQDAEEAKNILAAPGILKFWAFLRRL
UniProt Q08426: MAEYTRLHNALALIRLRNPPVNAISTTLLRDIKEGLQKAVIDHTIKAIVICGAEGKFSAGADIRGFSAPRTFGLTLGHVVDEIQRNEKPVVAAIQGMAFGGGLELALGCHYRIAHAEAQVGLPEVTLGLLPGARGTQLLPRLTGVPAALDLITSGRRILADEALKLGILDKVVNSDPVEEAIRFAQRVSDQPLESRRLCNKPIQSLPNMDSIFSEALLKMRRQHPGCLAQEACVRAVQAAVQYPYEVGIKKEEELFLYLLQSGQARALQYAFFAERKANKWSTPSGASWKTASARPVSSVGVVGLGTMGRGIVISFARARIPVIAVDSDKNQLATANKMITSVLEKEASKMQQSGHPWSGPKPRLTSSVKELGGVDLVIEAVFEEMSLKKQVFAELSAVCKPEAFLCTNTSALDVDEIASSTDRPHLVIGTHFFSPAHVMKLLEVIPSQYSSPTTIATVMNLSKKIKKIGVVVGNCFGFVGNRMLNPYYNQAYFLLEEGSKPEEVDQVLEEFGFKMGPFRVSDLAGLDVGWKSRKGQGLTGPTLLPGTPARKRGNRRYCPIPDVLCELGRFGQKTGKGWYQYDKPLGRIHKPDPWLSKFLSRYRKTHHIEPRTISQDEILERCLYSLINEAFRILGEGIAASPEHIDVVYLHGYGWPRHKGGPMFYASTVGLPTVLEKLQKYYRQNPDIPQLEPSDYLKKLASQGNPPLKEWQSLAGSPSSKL
UniProt Q9NZJ0: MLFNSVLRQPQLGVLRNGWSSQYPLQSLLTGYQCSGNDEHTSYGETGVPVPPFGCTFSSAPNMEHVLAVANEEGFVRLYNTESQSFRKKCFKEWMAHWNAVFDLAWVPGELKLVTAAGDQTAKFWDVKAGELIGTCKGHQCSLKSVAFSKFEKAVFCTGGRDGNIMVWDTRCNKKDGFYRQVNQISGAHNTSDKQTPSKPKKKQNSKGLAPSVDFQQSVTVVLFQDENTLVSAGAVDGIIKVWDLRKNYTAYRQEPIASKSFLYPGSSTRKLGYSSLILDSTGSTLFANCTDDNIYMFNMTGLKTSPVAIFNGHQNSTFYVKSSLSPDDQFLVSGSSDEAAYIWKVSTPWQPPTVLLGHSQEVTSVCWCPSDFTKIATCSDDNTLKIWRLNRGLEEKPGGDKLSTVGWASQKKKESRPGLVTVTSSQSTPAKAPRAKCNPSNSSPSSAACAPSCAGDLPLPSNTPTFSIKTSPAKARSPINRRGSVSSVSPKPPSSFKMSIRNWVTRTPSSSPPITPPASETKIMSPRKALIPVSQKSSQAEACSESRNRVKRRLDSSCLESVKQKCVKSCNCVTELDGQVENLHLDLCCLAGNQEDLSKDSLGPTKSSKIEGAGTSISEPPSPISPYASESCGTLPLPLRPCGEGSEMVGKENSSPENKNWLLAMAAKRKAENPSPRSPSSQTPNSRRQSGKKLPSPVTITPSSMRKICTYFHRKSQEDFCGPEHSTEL
UniProt P51452: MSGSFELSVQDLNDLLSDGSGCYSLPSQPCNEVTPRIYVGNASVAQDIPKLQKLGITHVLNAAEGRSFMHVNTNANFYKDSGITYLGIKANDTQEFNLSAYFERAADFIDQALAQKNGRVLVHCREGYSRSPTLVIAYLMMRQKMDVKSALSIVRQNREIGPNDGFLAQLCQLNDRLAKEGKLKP
UniProt Q9H9B1: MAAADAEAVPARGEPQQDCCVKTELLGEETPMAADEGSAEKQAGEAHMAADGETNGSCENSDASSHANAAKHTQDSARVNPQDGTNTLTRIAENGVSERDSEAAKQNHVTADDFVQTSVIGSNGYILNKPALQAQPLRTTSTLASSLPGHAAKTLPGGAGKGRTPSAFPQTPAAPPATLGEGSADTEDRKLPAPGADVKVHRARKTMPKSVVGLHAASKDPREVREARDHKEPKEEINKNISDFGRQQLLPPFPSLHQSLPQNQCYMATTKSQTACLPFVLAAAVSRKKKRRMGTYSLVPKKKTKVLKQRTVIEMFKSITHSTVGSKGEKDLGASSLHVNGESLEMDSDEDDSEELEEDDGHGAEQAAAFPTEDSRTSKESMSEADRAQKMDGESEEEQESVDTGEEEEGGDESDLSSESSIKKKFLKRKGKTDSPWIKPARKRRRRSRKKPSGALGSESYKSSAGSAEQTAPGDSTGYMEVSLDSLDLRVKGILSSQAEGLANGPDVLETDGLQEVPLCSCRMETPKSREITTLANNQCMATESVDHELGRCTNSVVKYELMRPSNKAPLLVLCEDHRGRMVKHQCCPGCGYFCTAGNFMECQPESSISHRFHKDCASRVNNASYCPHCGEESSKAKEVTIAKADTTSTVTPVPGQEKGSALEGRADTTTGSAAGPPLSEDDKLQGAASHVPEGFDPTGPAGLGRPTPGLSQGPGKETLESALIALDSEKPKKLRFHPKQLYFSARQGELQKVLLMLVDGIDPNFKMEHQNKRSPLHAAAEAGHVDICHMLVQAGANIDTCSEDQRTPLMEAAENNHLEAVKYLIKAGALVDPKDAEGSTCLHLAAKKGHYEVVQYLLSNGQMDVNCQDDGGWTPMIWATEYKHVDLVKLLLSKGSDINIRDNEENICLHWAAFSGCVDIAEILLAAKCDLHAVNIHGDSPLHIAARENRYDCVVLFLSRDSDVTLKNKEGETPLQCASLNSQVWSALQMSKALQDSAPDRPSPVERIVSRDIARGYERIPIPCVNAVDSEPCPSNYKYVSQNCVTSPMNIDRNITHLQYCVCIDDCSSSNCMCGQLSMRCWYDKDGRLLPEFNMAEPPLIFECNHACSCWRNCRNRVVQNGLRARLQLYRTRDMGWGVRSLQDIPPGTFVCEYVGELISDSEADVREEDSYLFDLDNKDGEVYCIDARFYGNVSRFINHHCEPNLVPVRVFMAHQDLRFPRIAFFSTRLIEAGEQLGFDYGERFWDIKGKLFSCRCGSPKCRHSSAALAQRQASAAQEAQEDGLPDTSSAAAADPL
UniProt Q7Z388: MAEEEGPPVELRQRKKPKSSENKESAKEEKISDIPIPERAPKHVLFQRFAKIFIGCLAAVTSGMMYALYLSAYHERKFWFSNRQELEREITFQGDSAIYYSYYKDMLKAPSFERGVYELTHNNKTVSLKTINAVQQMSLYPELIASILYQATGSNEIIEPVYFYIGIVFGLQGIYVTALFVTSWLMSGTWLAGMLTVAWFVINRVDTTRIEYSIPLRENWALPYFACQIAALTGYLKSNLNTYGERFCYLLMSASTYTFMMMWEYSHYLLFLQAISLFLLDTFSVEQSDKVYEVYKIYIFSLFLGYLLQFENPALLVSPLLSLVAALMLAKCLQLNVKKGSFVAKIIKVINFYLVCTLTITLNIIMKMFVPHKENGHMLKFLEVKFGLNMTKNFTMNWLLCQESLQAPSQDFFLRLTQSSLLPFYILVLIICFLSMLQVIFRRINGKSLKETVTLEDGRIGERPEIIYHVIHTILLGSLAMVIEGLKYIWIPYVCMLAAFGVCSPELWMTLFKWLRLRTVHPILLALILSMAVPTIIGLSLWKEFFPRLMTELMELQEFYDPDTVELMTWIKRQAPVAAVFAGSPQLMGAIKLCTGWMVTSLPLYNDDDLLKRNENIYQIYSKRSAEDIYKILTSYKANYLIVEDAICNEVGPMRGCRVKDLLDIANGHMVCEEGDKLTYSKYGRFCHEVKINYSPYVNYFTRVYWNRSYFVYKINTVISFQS
UniProt Q16610: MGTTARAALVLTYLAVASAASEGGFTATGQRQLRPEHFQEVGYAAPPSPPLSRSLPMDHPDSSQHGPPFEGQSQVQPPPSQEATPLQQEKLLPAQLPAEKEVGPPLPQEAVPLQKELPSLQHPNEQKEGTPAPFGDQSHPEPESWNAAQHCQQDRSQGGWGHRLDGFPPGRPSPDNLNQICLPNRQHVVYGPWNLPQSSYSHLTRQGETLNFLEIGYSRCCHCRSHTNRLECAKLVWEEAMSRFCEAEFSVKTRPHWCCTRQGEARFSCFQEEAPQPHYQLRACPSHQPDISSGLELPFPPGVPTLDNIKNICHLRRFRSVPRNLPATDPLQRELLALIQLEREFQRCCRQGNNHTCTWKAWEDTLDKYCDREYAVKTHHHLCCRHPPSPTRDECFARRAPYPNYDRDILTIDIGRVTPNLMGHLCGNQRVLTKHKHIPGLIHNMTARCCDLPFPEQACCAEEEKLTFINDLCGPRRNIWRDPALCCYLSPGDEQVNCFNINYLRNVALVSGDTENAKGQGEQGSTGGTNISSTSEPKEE
UniProt Q9C005, whole entry, looked up: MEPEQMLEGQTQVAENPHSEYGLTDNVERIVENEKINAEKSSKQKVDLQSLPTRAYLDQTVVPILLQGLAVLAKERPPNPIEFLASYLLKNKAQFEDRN
UniProt Q66K89: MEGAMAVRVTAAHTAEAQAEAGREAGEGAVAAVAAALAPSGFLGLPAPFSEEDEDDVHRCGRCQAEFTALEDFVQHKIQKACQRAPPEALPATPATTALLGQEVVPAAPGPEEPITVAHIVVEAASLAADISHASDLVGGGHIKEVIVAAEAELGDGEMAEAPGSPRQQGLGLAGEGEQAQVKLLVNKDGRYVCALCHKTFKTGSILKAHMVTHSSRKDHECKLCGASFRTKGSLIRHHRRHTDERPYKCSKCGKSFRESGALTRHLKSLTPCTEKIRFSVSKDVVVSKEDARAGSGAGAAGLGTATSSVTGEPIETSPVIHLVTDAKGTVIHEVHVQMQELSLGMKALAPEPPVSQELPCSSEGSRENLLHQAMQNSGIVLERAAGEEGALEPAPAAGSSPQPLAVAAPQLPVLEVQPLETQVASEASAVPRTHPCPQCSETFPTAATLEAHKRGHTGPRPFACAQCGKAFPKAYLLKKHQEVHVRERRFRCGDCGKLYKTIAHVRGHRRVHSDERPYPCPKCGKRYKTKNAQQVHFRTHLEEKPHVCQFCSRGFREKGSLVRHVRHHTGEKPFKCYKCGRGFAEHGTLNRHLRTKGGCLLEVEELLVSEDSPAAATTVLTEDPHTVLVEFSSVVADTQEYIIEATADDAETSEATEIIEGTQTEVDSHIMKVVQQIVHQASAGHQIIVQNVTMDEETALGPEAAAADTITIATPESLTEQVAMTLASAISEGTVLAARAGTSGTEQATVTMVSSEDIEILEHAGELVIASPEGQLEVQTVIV
UniProt Q9H223: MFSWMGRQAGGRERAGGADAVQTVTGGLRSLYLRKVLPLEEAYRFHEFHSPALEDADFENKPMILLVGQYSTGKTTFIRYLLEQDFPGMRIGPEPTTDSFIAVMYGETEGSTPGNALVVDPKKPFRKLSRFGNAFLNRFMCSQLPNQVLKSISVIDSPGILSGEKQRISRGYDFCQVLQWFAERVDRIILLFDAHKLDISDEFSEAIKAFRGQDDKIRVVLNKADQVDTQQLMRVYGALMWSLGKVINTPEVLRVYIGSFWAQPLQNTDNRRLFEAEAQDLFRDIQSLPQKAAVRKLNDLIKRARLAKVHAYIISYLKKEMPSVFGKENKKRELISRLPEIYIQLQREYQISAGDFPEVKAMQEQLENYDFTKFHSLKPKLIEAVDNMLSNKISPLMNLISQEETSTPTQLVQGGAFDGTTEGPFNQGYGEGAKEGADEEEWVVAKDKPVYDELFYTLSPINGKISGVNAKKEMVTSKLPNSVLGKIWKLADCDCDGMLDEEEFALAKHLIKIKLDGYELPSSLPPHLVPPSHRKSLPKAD

The targets below were run with CN1CC[C@H](c2c(O)cc(O)c3c(=O)cc(-c4ccccc4Cl)oc23)[C@H](O)C1 [alvocidib] (assay: log2 fold change, soluble protein after heating vs DMSO (PISA); higher = thermal stabilisation; K562 lysate, 10 uM; active = over 0.2 and 3.5 SD of the protein, either way, in both replicates (recomputed)).
How it was run: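 A 30 min treatment with 10 μM compound was applied to crude K562 extract at 1 mg/mL protein in PBS pH 7.4 with 1 mM MgCl2. Heating for 3 min spanned 48°C-58°C, after which aliquots were pooled, adjusted to 0.5% NP-40 at 4°C and spun at 21,000xg for 90 min. TMTpro 16plex LC-MS/MS of the supernatant, with channel sums equalised, gave values recorded as log-two fold change in thermal stability against solvent controls, from duplicates.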

log2 fold change, inactive:
DVL3 (UniProt Q92997) -0.156
DYNC2H1 isoform 2 (UniProt Q8NCM8) -0.023
ECHDC1 (UniProt Q9NTX5) -0.045
EDEM2 (UniProt Q9BV94) -0.004
EEF2KMT (UniProt Q96G04) 0.047
DTYMK (UniProt P23919) 0.037
DUSP22 isoform 2 (UniProt Q9NRW4) 0.034
EHHADH (UniProt Q08426) 0.013
EEF2K (UniProt O00418) 0
DTL (UniProt Q9NZJ0) -0.008
EED, A0A5F9ZI63 -0.007
EID1 (UniProt Q9Y6B2) -0.061
EEA1 (UniProt Q15075) 0.001
EFCAB2 isoform 2 (UniProt Q5VUJ9) -0.035
EHBP1 isoform 2 (UniProt Q8NDI1) -0.023
EFNB1 (UniProt P98172) -0.023
DUSP3 (UniProt P51452) 0.009
EHMT1 (UniProt Q9H9B1) -0.063
DPY19L4 (UniProt Q7Z388) -0.024
EDC4 (UniProt Q6P2E9) -0.012
EEF1G isoform 2 (UniProt P26641) 0.014
DTD2 (UniProt Q96FN9) -0.088
EDF1 (UniProt O60869) 0.01
ECM1 isoform 4 (UniProt Q16610) -0.012
DYSF isoform 13 (UniProt O75923) -0.035
DSC2 (UniProt Q02487) -0.014
DYNC1I2 isoform 2 (UniProt Q13409) 0.065
DTX3L (UniProt Q8TDB6) 0.05
EFR3A (UniProt Q14156) -0.01
DPY30 (UniProt Q9C005) 0.258
E4F1 (UniProt Q66K89) -0.071
EHD4 (UniProt Q9H223) 0.024

A section taken from the entries so far:
log2 fold change, inactive:
EDF1 (UniProt O60869) 0.01
ECM1 isoform 4 (UniProt Q16610) -0.012
